Experimental data from publication PMC6994103 (PLoS Neglected Tropical Diseases, 2020).

Assays:
[1] = system: T. cruzi trypomastigotes Y strain; experiment: Trypanocidal activity in trypomastigotes, Y strain; format: cell-based; conditions: Trypanosoma cruzi, 24 h, read-out: trypanocidal IC50, trypomastigotes
Experimental: VERO cells (5 x10^4 per well) were infected with trypomastigotes (2.5 ×10^5 per well) for 4 h. After this period, the infected cells were washed twice with phosphate-buffered saline (PBS), the MEM medium was replaced, and the cells were kept in culture at 37°C, 5% CO2. In order to obtain intracellular amastigotes, the cells were lysed 4 days after infection using a cell scraper, collected, washed twice with PBS (or MEM) and counted using a hemocytometer. Trypomastigotes were obtained from infected VERO cells as previously described.
Epimastigotes of T. cruzi were cultured as described above, in 24-wells plate at a start density of 0.5 x10^7 cells/mL in BHT medium. Parasites´ growth was evaluated at different concentrations of BZL, CV and CV structural analogues, and parasite proliferation was determined after 48 h. […] Growth was determined by counting in a Neubauer chamber and viability assays by using “Cell Titer 96 Aqueous One Solution Cell Proliferation Assay (MTS)” (Promega, Madison, WI, USA) according to the manufacturer’s instructions. Amastigotes were fixed with methanol, stained and mounted with Vectashield with DAPI (Vector Laboratories, Burlingame, CA, USA), and then the non-lysed cells were counted by using fluorescence microscopy.

VERO cells = experiment: Toxicity assay in VERO cells (gentian violet staining); format: cell-based, African green monkey; conditions: IC50 in VERO cells / IC50 in trypomastigotes (Y strain)
Experimental: VERO cells (African green monkey Kidney, ATCC CCL-81) were cultured in MEM medium supplemented with 10% heat inactivated FCS, 0.15% (w/v) NaHCO3, 100 U/mL penicillin and 100 U/mL streptomycin at 37°C in 5% CO2.
The toxicity of the compounds was determined in VERO cells by the gentian violet staining assay. Briefly, the cells (1 x10^4 cells/well) were incubated in 96-well plates with the indicated compound or dimethyl sulfoxide (DMSO) as negative control and maintained at 37° C for 24 h. Then the cells were fixed for 15 min, and stained with 0.5% gentian violet. The absorbance was measured at 570 nm. The selectivity index (SI) was calculated for each CV analogue as the ratio between the IC50 obtained in mammalian cells and the IC50 in trypomastigotes. For the combined treatment, the results were presented as percentage of untreated cells.

Compound | IC50 [1] | Selectivity Index (VERO cells)
Cc1cc2c(s1)Nc1ccccc1N=C2N1CCN(C)CC1 [Olanzapine] | > 50 µM | 
CN1CCC(=C2c3ccccc3C=Cc3ccccc32)CC1 [Cyproheptadine] |  | 9.1
